# Several values for one entry are separate records, joined by “and”; a condition that tells them apart may be missing. Equal values may be shown once. Screen size: about 290,000 compounds; about 570 (0.2%) were called active. Inconclusive results, whose numbers are uncertain, are shown with a selection of clear calls. No stated cut-off is given here; in the data, active means inhibition mostly above about 51% (no sharp cut-off); inconclusive means no clear call, values can overlap the other calls; inactive means mostly below about 53%.
# By UniProt entry, the sequences of proteins in these tests, tags left out.
# UniProt Q00975, whole entry, looked up: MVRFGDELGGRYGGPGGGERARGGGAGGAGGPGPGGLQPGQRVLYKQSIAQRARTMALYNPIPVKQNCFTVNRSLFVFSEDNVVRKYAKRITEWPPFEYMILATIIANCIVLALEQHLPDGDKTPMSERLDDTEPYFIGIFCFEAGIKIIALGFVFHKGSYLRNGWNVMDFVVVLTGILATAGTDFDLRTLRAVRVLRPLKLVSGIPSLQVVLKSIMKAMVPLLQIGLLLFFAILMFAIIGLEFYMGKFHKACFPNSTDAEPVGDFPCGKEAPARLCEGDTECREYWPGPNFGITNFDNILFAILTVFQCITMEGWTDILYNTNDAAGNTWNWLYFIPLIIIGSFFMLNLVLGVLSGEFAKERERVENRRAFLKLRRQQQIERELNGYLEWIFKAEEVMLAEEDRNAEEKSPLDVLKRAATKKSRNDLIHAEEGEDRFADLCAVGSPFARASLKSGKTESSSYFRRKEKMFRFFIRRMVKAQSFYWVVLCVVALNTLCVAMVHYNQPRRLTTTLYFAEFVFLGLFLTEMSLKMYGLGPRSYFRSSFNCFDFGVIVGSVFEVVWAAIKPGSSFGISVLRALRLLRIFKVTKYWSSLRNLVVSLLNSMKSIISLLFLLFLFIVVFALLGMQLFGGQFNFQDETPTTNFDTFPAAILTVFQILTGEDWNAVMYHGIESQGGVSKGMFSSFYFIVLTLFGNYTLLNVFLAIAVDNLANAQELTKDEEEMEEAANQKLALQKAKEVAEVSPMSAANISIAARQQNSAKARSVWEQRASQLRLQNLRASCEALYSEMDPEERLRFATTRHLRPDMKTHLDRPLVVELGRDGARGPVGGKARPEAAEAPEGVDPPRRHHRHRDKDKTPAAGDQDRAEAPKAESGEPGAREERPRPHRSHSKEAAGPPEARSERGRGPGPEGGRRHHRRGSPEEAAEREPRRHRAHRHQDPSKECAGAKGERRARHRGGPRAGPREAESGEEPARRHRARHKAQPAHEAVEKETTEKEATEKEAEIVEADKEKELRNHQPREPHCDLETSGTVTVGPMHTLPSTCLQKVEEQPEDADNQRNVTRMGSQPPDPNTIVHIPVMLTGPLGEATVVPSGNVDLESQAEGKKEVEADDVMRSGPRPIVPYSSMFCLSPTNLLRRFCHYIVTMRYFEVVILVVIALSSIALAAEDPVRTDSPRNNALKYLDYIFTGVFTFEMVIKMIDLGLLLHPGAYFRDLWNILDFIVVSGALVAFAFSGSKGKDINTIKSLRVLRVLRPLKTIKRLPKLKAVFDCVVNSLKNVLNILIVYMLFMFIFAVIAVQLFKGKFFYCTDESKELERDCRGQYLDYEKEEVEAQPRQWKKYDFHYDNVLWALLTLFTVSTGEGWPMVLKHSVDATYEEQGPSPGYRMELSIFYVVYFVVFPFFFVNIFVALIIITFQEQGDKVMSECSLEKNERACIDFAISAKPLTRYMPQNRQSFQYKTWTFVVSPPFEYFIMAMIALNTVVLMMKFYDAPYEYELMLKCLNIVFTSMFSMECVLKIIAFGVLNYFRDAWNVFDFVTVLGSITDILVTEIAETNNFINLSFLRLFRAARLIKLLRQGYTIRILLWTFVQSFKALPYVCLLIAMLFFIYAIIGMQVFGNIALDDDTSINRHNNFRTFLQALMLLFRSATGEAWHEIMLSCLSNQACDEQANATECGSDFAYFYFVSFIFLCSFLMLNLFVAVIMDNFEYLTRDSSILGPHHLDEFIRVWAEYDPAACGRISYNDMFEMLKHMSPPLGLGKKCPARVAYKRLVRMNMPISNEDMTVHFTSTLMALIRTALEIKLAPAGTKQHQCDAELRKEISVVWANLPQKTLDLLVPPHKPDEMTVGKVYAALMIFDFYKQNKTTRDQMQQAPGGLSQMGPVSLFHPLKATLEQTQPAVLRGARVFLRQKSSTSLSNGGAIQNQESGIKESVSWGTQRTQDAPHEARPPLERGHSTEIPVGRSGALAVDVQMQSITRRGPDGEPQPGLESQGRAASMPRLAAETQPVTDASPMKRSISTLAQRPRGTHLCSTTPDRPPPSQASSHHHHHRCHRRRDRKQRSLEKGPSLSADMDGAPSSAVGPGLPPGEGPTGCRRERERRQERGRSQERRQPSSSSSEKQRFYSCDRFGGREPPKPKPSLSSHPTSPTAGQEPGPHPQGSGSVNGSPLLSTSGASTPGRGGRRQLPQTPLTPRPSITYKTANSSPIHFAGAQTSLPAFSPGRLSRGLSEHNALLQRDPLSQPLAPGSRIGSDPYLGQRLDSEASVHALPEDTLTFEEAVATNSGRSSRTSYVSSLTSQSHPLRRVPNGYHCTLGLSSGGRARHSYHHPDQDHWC
# Target: Voltage-dependent N-type calcium channel subunit alpha-1B (Homo sapiens) (UniProt Q00975)
# Assay: disruptors of CaV2.2 binding to Mint1 – biochemical, HTRF (AID 2073)
# Settings: HTRF protein-protein interaction, Mint1-CaV2.2; at 20 µM; stronger effect = higher value
row,SMILES,inhibition
1,Cc1cc(=O)[nH]c(SCC(=O)N2CCN(C(c3ccccc3)c3ccccc3)CC2)n1,inconclusive: 89.8%
2,COC(CNC(=O)CCc1c(C)nc2c(-c3ccc(F)cc3)c(C)nn2c1C)OC,inconclusive: 91%
3,N#C/C(=C\c1c[nH]c2ccccc12)C(=O)NCC1CCCO1 (stereo unspecified),inconclusive: 56.7%
4,CCOC(=O)C1CCN(C(=O)CC(C)S(=O)(=O)c2ccc3c(c2)NC(=O)CO3)CC1 (stereo unspecified),inconclusive: 94.4%
5,O=C(O)C1CCC(N2C(=O)c3c(Cl)c(Cl)c(Cl)c(Cl)c3C2=O)CC1 (stereo unspecified),active: 81.3%
6,O=C(CSc1nnc(SCc2ccccc2)s1)N/N=C/c1c[nH]c2ccccc12,inactive: 44.7%
7,COCCn1c(SCC(=O)Nc2ccc(F)cc2)nc2ccccc2c1=O,inactive: 6.9%
8,CC1CCN(C(=O)CCNS(=O)(=O)c2ccc3c(c2)oc(=O)n3C)CC1,inconclusive: 85.1%
9,CCCCOn1c(C)c(C(=O)OCC)c2c3no[n+]([O-])c3ccc21,inconclusive: 56%
10,O=c1[nH][nH]c2c(N=Cc3ccccc3O)ccc(F)c12,inconclusive: 64.1%
11,COc1ccc(CCOC(=O)c2ccc(N)c([N+](=O)[O-])c2)cc1,inconclusive: 56.6%
12,CC(=O)Oc1ccc2c(=O)c(-c3nc4ccccc4s3)coc2c1,inconclusive: 65.8%
13,COc1ccc(OC)c(CNC(=O)CCC(=O)N2Cc3cccc(OC)c3Oc3ncccc32)c1,inconclusive: 72.1%
14,O=C(O)c1cnc(-c2ccccc2)nc1Sc1cccc(Cl)c1,inconclusive: 68.7%
15,CCn1c(=NC(=O)c2ccc(S(=O)(=O)N(C)C)cc2)sc2cccc(OC)c21,inconclusive: 53.3%
16,COc1ccc(C(=O)N2CC(c3ccccc3)CC2=O)cc1 (stereo unspecified),inconclusive: 87.9%
17,CC(=O)Nc1ccc(N=Cc2c(O)c(C(=O)Nc3ccccc3)cc3ccccc23)cc1,inconclusive: 66.3%
18,CCOC(=O)/C(C#N)=C/c1cccc(F)c1,inactive: 15.3%
19,Nc1ccc2c(C(F)(F)F)cc(=O)oc2c1,inconclusive: 70.1%
20,CCN1CCN(C(=O)CSc2cc(=O)n(CC)c3ccccc23)CC1,inconclusive: 66.5%
21,COc1ccc(-c2csc(NC(=O)CN3C(=O)CCC3=O)n2)c(OC)c1,inactive: 6.5%
22,CCCC(=O)c1cc2c(cc1NC(=O)c1ccccc1F)OCCO2,inconclusive: 66.2%
23,Cc1cc(=O)[nH]c(N/N=C/CCc2ccccc2)n1,inconclusive: 91.8%

row,SMILES,inhibition
1,Cc1ccc(CCN2C(=O)CCC2(C)C(=O)NC2CCCC2)cc1 (stereo unspecified),inconclusive: 71%
2,CCOC(=O)c1ccc(N2C(=O)c3n[nH]c(-c4ccco4)c3C2c2cccc([N+](=O)[O-])c2)cc1 (stereo unspecified),inactive: 27.2%
3,CCn1cnc2c1c(=O)n(CC(=O)NCC(C)C)c(=O)n2Cc1ccccc1,inconclusive: 56.8%
4,CC(=O)C1C(=O)c2c(cccc2[N+](=O)[O-])C1=Nc1ccccc1C (stereo unspecified),inconclusive: 71.7%
5,Cc1ccccc1OCC(=O)N/N=C/c1ccc([N+](=O)[O-])o1,inactive: 6.4%
6,CCn1ncc(-c2ccnc3cc(C(=O)O)nn23)c1C,active: 67.9%
7,CCCC(c1nnnn1Cc1ccc(F)cc1)N1CCN(C)CC1 (stereo unspecified),inconclusive: 61.9%
8,COc1ccc(C2(C)NC(=O)N(CC(=O)Nc3ccc(S(=O)(=O)N4CCCC4)cc3)C2=O)cc1 (stereo unspecified),inactive: 4.9%
9,O=C(COC(=O)C1CCN(S(=O)(=O)c2ccc3c(c2)OCCO3)CC1)Nc1cc(C(F)(F)F)ccc1Cl,inconclusive: 82.3%
10,CCc1ccc2n(-c3ccc(OC)cc3)c([S-])c(C(=O)Nc3cc(C)cc(C)c3)[n+]2c1,inconclusive: 61%
11,Cc1ccc(/C=C2\SC(=S)N(/N=C/c3cc([N+](=O)[O-])ccc3O)C2=O)o1,active: 73.2%
12,CCOC(=O)c1nc2sc3c(c2c(=O)[nH]1)CCCC3,inactive: 29.6% and inactive: 12.3%
13,CCCCCCC(=O)N(O)C1CC(=O)N(c2ccccc2)C1=O (stereo unspecified),active: 65.6%
14,CCCCc1nc2sc3c(=O)n(N)cnc3c2c2c1CCCC2,inactive: 8.9%
15,CC(=O)c1sccc1NC(=O)c1ccccc1C(=O)O,inconclusive: 51.5%
16,COc1ccc(C(=O)Nc2nnc(S(=O)(=O)N(C)Cc3ccc(F)cc3)s2)cc1OC,inconclusive: 79.1%
17,Cc1ccc(N=Cc2c(O)c3ccccc3oc2=O)c(C)c1,inconclusive: 73.2%
18,O=C(Nc1cccc(Cl)c1)Nc1nnc(-c2ccncc2)s1,active: 56.2%
19,FC(F)(F)c1ccccc1NC1=NCCC1,inactive: 0.7%
20,O=C(c1ccc(OC2CCN(CCc3ccccc3)CC2)cc1)N1CCC(CO)CC1,inconclusive: 54.9%
21,O=S(=O)(NC1=NCCCCC1)c1ccccc1Cl,inactive: 7.5%
22,COc1ccc2nc3ccccc3nc2c1,inactive: 23.5%
23,Cc1cc(NS(=O)(=O)c2c(C)[nH]c(=O)[nH]c2=O)ccc1Br,inconclusive: 66.8%

row,SMILES,inhibition
1,CN(c1ccccc1)c1ccc(/C=C(\CCC(=O)O)c2nc3ccccc3s2)cc1[N+](=O)[O-],active: 54.7%
2,CN1CCN(S(=O)(=O)c2ccc3c(c2)NC(=O)CS3)CC1,inconclusive: 63.1%
3,CC1CCN(CCCNC(=O)c2ccc(Cn3c(=S)[nH]c4ccc(Br)cc4c3=O)cc2)CC1,inconclusive: 70.5%
4,O=C(NCCc1c[nH]c2ccccc12)C(F)(F)C(F)F,inactive: -6.3%
5,Clc1cccc(Cl)c1CNc1ccc(N2CCCC2)cc1,inactive: 31.8%
6,COC1CCCCC1NS(=O)(=O)c1ccc(Cl)cc1 (stereo unspecified),inconclusive: 58.2%
7,Cc1ccc2cc(CN(C(=O)c3cccs3)c3ccccc3)c(=O)[nH]c2c1,inactive: 4.6%
8,O=C(CCn1c(=O)[nH]c2ccsc2c1=O)NCc1ccc(F)cc1,inconclusive: 56.7%
9,CC(=O)Nc1cccc(NC(=O)CCNC(=O)c2ccccc2)c1,inconclusive: 62.8%
10,C#CCn1cc[n+](CC(=O)N(C)C)c1,inconclusive: 70.7%
11,CCOC(=O)C1CCN(C(C(=O)Nc2ccc3c(c2)OCCO3)c2ccccc2)CC1 (stereo unspecified),inconclusive: 87.7%
12,COc1ccc(-c2nn(-c3ccccc3)cc2/C=C(/C#N)C(N)=O)cc1[N+](=O)[O-],active: 54.4%
13,COc1ccccc1NC(=O)Cc1cccs1,inactive: -5.5%
14,COC(=O)c1cccc(NS(C)(=O)=O)c1,inconclusive: 78.5%
15,Cc1cccc(CN2CCN(C(=O)CCl)CC2)c1,inconclusive: 60.7%
16,O=C(Nc1ccc(F)cc1)C1COc2ccccc2O1 (stereo unspecified),inconclusive: 60.8%
17,CCn1c(C)c(CS(=O)(=O)c2ccccc2)[nH]c1=O,active: 73.9%
18,CCOC(=O)c1c(C)c(C(=O)NCc2ccco2)c(C)n1Cc1ccccc1,inconclusive: 62.8%
19,Cc1nnsc1C(=O)NC(C)c1ccccc1 (stereo unspecified),inconclusive: 71.1%
20,CN(C)c1ccc(NC(=S)NC(=O)/C=C/c2ccc(Cl)cc2)cc1,inconclusive: 54.6%
21,CCN(Cc1ccccc1)S(=O)(=O)c1c(C(=O)N2CCCC2)c(C)n(C)c1C,inconclusive: 58.6%
22,CCOC(=O)c1cnn(-c2cc(C)cc(C)c2)c1N,inactive: 3.5%
23,CCn1cc(C(=O)N2CC(C)CC(C)C2)c(=O)c2cc(S(=O)(=O)N3CCCC3)ccc21 (stereo unspecified),inconclusive: 58.8%

# Part of the list above, with bars between the fields.
row | SMILES | inhibition
21 | COc1ccc(-c2csc(NC(=O)CN3C(=O)CCC3=O)n2)c(OC)c1 | inactive: 6.5%
22 | CCCC(=O)c1cc2c(cc1NC(=O)c1ccccc1F)OCCO2 | inconclusive: 66.2%
23 | Cc1cc(=O)[nH]c(N/N=C/CCc2ccccc2)n1 | inconclusive: 91.8%
1 | Cc1ccc(CCN2C(=O)CCC2(C)C(=O)NC2CCCC2)cc1 (stereo unspecified) | inconclusive: 71%

# Next part.

row,SMILES,inhibition
1,COc1cc(C2CC(=O)N3CN(c4ccccc4C)CSC3=C2C#N)cc(OC)c1OC (stereo unspecified),inactive: 90.6%
2,CCOC(=O)C1=C(CC)Nc2ccccc2N=C1NC(=O)Cn1cnc2ccccc2c1=O,inconclusive: 59.4%
3,CCCNC(=O)CSc1nccn1Cc1ccco1,inactive: -17.8%
4,S=C(Nc1ccc2nc(-c3ccccn3)c(-c3ccccn3)nc2c1)N1CCCCCC1,inconclusive: 68.7%
5,Cc1oc2c(cc(NS(=O)(=O)c3cccs3)c3ccccc32)c1C(=O)OC(C)C,inconclusive: 78.6%
6,CCOC(=O)c1ccc(NC(=O)CSc2nc(NC(=O)c3ccccc3)c3c(C)c(C)oc3n2)cc1,inconclusive: 61.1%
7,O=[N+]([O-])c1ccc(/C=N/Nc2ncc(-c3ccccc3)cn2)cc1,inconclusive: 89.7%
8,O=C(Nc1nc2ccccc2[nH]1)C1CCCC1,inconclusive: 70.2%
9,COc1ccc2oc(=O)c(C(=O)NCc3ccco3)cc2c1,inconclusive: 98.9%
10,Cc1ccc(-c2nc3ccccc3o2)cc1NC(=O)c1ccc2c(c1)OCO2,inactive: -1.5%
11,CCOC(=O)c1c(C)nc2cc(C)ccn12,inconclusive: 59.6%
12,CCOC(=O)C1=C(Cc2ccc(C)cc2)C(=O)c2ccccc2C1=O,inactive: 36%
13,COc1ccc(NC(=O)NC23CC4(C)CC(C)(CC(C)(C4)C2)C3)cc1,inconclusive: 61.6%
14,COc1ccc(/C=C2\CCc3c2nc2ccccc2c3C(=O)O)cc1OC,inconclusive: 50.1%
15,CCOc1ccccc1-n1c(SCC(N)=O)nnc1-c1ccccc1,inactive: -2.1%
16,CCc1ccc(C2CC(c3ccc(Cl)cc3)n3nc(N)nc3N2)cc1 (stereo unspecified),inconclusive: 91.3%
17,Nc1c(Cl)ncnc1N/N=C/c1ccncc1,inactive: -9.8%
18,COc1ccc(C2C(Oc3ccccc3)C(=O)N2c2cc(C)ccc2C)cc1OC (stereo unspecified),inactive: -3.8%
19,Cc1ccc(CSCCC(=O)NCCC2=CCCCC2)cc1,inconclusive: 80.8%
20,COC(=O)C1C(O)=C(C=NC2CCCCC2)C(=O)CC1(C)C (stereo unspecified),inactive: 10.7%
21,CCc1ccc(C(=O)NNc2ccc(Cl)cc2)cc1,inactive: -10.8%
22,CC1(C(=O)N2CC3(CC(c4cccc([N+](=O)[O-])c4)=NO3)C[C@H]2C(=O)NCC(N)=O)CC1 (stereo partly specified),inactive: -4.4%
